From PubChem BioAssay AID1487 (National Center for Advancing Translational Sciences (NCATS), 2009)
The other results are listed elsewhere or left out. These are further read-outs of the screen, such as a control signal, another cell line or another target. No call is given for them. Most of these compounds were active or inconclusive in the main read-out, so they are no random draw. Potencies come from curve fits of mixed quality, noted in brackets.

Assay: qHTS Assay for Modulators of Lamin A Splicing
Settings: HeLa LMNA splicing GFP/RFP minigene ratio, 48 h
How it was run: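 Read-out is the ratio of GFP to DsRed2 object intensity, acquired by 488 nm laser-scanning cytometry on HeLa lamin A-EGFP minigene reporter cells. Compound incubation 48 hrs at 37 °C in Opti-MEM with 2% FBS; DMSO 0.5% final.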

[1] = measured here: GFP splicing reporter channel
[2] = measured here: RFP viability control channel

SMILES	AC50 [1]	AC50 [2]
CC(C)NC(=O)Cn1c(=O)nc(-c2ccccc2)c2ccccc21	5.62 µM [rising, single point]	
Cc1ccc(C(=O)O/N=C/c2c(N3CCOCC3)n(C)c3ccccc23)cc1	14.1 µM [falling, partial curve]	7.94 µM [falling, partial curve]
Cn1c(Cc2cccc3ccccc23)nnc1SCC(=O)N1CCN(c2cccc(Cl)c2)CC1		11.2 µM [rising, partial curve]
N#C/C(=N\O)c1nc(-c2ccccc2)cs1		35.5 µM [rising, single point]
COc1cccc(CNn2c(-c3cccc(C)c3)nc3ccccc3c2=O)c1		35.5 µM [rising, single point]
Cc1nn(C)cc1C1C(C#N)=C(N)N(c2ccc(F)c([N+](=O)[O-])c2)C2=C1C(=O)CCC2 (stereo unspecified)		14.1 µM [rising, single point]
CC(=C\c1ccco1)/C=C(\C#N)C(=O)NCCc1c[nH]c2ccccc12		35.5 µM [rising, single point]
COc1ccc(-c2cc(C(=O)Nc3c(C(=O)c4ccc(C)c(F)c4)oc4ccccc34)no2)cc1	12.6 µM [rising, partial curve]	0.398 µM [rising, full curve, poor fit]
COc1ccc(OCC(=O)Nc2ccc3c(c2)N(C)C(=O)c2ccccc2S3)cc1	3.16 µM [falling, partial curve, poor fit]	0.891 µM [falling, full curve, poor fit]
O=C(NC(Cc1ccccc1)C(=O)Oc1ccc2c(C(F)(F)F)cc(=O)oc2c1)OCc1ccccc1 (stereo unspecified)	35.5 µM [rising, single point]	35.5 µM [rising, single point]
COc1ccc(OC2C(=O)N(CCc3ccc(OC)c(OC)c3)C2c2ccc3c(c2)OCO3)cc1 (stereo unspecified)		14.1 µM [rising, single point]
Cc1cc(/C=C2\SC(=Nc3ccccc3)NC2=O)c(C)n1-c1ccc(S(N)(=O)=O)cc1	6.31 µM [falling, partial curve]	8.91 µM [falling, partial curve]
O=C1CCCC(=O)N1c1ccc(Oc2ccc(Cl)cc2)cc1		31.6 µM [rising, single point]
COC(=O)CSc1nnc(-c2cccc(O)c2)o1		0.501 µM [falling, single point]
FC(F)(F)c1cnc(NNC(=S)Nc2cccnc2)c(Cl)c1	35.5 µM [rising, single point]	
CCc1ccccc1NC(=O)c1cc(S(=O)(=O)N2CCC(C)CC2)cn1C		0.00794 µM [falling, full curve, poor fit]
CC1=C(C(=O)Nc2ccc(C)cc2C)C(c2cc(Br)ccc2F)n2ncc(C(=O)Nc3ccc(C)cc3)c2N1 (stereo unspecified)	11.2 µM [falling, partial curve]	10 µM [falling, partial curve]
O=C1NC(=Nc2ccccc2)/C(=C/c2ccco2)S1		12.6 µM [rising, partial curve, poor fit]

SMILES	AC50 [1]	AC50 [2]
CC1CCCN(C(=O)Cc2cn(Cc3cccc(Cl)c3)c3ccccc23)C1 (stereo unspecified)		12.6 µM [rising, single point]
O=C(Nc1ccc(Cl)cc1C(=O)N1CCCC1)c1cccc([N+](=O)[O-])c1		4.47 µM [rising, partial curve]
O=C(CN1CCOc2ccccc21)NCc1ccc(F)cc1	35.5 µM [rising, single point]	
COc1ccc(-c2noc(CN(C)C3CCOCC3)n2)cc1	35.5 µM [falling, partial curve, poor fit]	
COc1ccc(C(=O)N2CCN(CCc3ccccn3)CC2)cc1	6.31 µM [rising, single point]	
C=CCn1c(-c2ccc(OC)cc2)csc1=Nc1c(C)n(C)n(-c2ccccc2)c1=O		25.1 µM [rising, single point]
O=S(=O)(c1cccc2c(I)cccc12)N1CCCNCC1	3.98 µM [falling, full curve, poor fit]	
Cc1ccc(-n2c(SCC(=O)Nc3ccc4c5c(cccc35)CC4)nc(O)cc2=O)cc1	14.1 µM [rising, single point]	
Cc1ccc(C(C#N)c2ccc3c(C(F)(F)F)cc(C(F)(F)F)nc3n2)cc1 (stereo unspecified)	11.2 µM [rising, partial curve]	22.4 µM [rising, single point]
O=C(CC1C(=O)N(Cc2ccccc2)C(=S)N1CCN1CCOCC1)Nc1ccc(F)cc1 (stereo unspecified)	12.6 µM [rising, partial curve, poor fit]	11.2 µM [rising, partial curve, poor fit]
CC1=NN(c2ccccc2)C(=O)/C1=C\C=C1\N(C)c2ccccc2C1(C)C	15.8 µM [rising, partial curve]	20 µM [rising, partial curve]
CCn1nc(NC(=O)c2ccncc2)c2cc3cccc(C)c3nc21		7.94 µM [rising, partial curve, poor fit]
O=C(c1ccc(F)cc1)C(C(=O)N1CCCCC1)n1ccccc1=O (stereo unspecified)	17.8 µM [rising, partial curve]	
CO/N=C/c1ccc(Sc2ccccc2N)c([N+](=O)[O-])c1		20 µM [rising, single point]
Cc1ccc(-c2nn3c(C)nnc3c3ccccc23)cc1S(=O)(=O)NC(C)(C)CO	20 µM [falling, partial curve]	14.1 µM [falling, partial curve]
CCOc1ccc(N(C)S(=O)(=O)c2cc(-c3cnc(C)o3)ccc2OC)cc1	0.0224 µM [rising, full curve, poor fit]	
Cc1cc(C)cc(C(=O)NCC(=O)OCC(=O)NCC(F)(F)F)c1		28.2 µM [rising, partial curve, poor fit]
O=C(Nc1nnc2n1CCS2)c1cc(C(F)(F)F)cc(C(F)(F)F)c1		3.16 µM [rising, partial curve, poor fit]

Given with each value named: 2 of the compounds above
O=C(NC(Cc1ccccc1)C(=O)Oc1ccc2c(C(F)(F)F)cc(=O)oc2c1)OCc1ccccc1 (stereo unspecified)
  AC50 [1]: 35.5 µM [rising, single point]
  AC50 [2]: 35.5 µM [rising, single point]
COc1ccc(OC2C(=O)N(CCc3ccc(OC)c(OC)c3)C2c2ccc3c(c2)OCO3)cc1 (stereo unspecified)
  AC50 [2]: 14.1 µM [rising, single point]
